Data taken from US20100184818A1, “PHOTOSENSITIZERS FOR TARGETED PHOTODYNAMIC THERAPY” (THE GENERAL HOSPITAL CORPORATION, priority 2007, published 2010).

Test: ESR spin trapping (DMPO) of superoxide under white light
Details: for Production of superoxide (DMPO-OOH ESR signal): 35 μM, 1 mM NADH, white light; for Production of superoxide (DMPO-OOH ESR signal) / Production of superoxide in presence of histidine compared with NADH: 1:3 H2O:DMSO; for Production of superoxide in presence of histidine compared with NADH: 2 mM histidine

SMILES | Production of superoxide (DMPO-OOH ESR signal) | Production of superoxide in presence of histidine compared with NADH | Production of superoxide, BF6 compared with BF4 (in presence of NADH)
C[N+]1(C)CC2c3c4c5c6c3c3c(c7ccc8c9ccc%10c%11c%12c%13c%14c(c6c6c3c7c8c(c9c%10%13)c%146)=C3C5C(C=C4)C(C=C%11)C3%12)C2C1.[I-] (centres unmarked) [CI1] | substantial amounts of superoxide | sharply lower (at least ten times) | –
C[N+]1(C)Cc2c3c4c5c6c7c8c9c(c%10c8c8c(c%11c%12c(c%13c%14ccc%15c(c2C1)c4c1c%15c%14c2c%13c%11c8c7c2c61)C[N+](C)(C)C%12)C1C[N+](C)(C)CC%101)C=CC3C95.[I-].[I-].[I-] (centres unmarked) [CI3] | substantial amounts of superoxide | sharply lower (at least ten times) | more superoxide than BF4
